The list shows a part of the results.
Assays:
Test in all cases: log2 fold change, soluble protein after heating vs DMSO (PISA); higher = thermal stabilisation; K562 cells, 10 uM, 30 min; active = over 0.2 and 3.5 SD of the protein, either way, in both replicates (recomputed)
[1] = compound: CC1=C(C=C(C=C1)NC(=O)C2=CC(=CC=C2)C(C)(C)C#N)NC3=CC4=C(C=C3)N=CN(C4=O)C
How it was run: (§1)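 For each measurement, 10 μM compound was applied for 30 min to K562 cells at 2×10^6 cells/mL. Aliquots were heated for 3 min across 48°C-58°C, pooled, and extracted in PBS with 0.5% NP-40 at 4°C; the supernatant after 21,000xg for 90 min was soluble protein. This was quantified by TMTpro 16plex LC-MS/MS with channel sums equalised, and thermal stability was reported relative to control samples from duplicates, on a log2 fold-change scale.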

The chains behind the UniProt entries cited, without tags or fusion partners. Where a name states a change or a piece, a line headed by the entry shows the natural chain unless it says otherwise.
UniProt Q9UNL2: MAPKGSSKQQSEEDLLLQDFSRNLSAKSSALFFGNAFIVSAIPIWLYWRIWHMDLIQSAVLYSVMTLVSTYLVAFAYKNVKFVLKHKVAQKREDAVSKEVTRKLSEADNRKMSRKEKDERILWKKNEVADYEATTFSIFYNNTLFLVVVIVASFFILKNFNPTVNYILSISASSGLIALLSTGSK
UniProt P05455: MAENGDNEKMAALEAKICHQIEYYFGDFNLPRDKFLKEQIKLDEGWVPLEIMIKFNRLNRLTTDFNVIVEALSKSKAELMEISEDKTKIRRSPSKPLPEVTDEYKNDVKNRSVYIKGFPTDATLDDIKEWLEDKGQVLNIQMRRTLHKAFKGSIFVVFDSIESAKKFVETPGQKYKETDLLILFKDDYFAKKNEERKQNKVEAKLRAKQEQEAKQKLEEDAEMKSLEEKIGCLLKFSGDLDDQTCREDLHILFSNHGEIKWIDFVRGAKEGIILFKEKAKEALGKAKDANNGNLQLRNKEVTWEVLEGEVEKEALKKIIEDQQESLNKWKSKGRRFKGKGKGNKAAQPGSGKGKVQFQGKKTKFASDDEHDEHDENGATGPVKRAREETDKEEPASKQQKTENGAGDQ
UniProt Q8N3U4: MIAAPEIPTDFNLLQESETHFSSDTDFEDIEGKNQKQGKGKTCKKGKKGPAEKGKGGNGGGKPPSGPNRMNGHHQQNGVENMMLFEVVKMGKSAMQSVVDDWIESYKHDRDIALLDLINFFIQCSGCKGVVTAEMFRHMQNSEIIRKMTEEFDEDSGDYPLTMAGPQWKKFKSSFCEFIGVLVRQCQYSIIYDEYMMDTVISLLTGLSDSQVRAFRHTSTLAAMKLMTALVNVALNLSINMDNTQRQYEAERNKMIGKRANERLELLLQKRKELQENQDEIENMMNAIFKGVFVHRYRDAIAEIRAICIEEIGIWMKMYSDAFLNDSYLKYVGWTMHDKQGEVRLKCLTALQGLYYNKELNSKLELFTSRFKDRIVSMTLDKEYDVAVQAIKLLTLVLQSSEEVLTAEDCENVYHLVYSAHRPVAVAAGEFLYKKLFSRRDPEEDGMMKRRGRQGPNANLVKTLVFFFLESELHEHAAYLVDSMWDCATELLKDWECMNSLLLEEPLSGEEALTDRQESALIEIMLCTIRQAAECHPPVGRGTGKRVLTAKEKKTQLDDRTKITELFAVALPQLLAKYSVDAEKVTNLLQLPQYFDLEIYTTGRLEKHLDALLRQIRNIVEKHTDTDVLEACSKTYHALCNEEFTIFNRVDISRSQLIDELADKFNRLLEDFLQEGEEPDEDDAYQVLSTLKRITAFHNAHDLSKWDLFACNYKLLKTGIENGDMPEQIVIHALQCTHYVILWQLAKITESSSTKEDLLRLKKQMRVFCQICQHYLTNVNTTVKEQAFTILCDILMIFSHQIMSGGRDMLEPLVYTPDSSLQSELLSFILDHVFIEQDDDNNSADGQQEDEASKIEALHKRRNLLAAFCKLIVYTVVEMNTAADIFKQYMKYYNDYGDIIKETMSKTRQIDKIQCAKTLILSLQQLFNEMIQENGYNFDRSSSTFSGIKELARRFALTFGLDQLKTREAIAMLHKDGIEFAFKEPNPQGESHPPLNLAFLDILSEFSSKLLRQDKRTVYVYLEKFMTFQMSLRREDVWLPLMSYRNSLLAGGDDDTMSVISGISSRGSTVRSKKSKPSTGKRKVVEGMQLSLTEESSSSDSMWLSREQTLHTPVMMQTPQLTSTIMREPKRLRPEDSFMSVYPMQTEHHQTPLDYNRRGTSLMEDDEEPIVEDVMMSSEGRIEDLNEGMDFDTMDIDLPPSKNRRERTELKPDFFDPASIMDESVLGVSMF
UniProt Q9BXP5: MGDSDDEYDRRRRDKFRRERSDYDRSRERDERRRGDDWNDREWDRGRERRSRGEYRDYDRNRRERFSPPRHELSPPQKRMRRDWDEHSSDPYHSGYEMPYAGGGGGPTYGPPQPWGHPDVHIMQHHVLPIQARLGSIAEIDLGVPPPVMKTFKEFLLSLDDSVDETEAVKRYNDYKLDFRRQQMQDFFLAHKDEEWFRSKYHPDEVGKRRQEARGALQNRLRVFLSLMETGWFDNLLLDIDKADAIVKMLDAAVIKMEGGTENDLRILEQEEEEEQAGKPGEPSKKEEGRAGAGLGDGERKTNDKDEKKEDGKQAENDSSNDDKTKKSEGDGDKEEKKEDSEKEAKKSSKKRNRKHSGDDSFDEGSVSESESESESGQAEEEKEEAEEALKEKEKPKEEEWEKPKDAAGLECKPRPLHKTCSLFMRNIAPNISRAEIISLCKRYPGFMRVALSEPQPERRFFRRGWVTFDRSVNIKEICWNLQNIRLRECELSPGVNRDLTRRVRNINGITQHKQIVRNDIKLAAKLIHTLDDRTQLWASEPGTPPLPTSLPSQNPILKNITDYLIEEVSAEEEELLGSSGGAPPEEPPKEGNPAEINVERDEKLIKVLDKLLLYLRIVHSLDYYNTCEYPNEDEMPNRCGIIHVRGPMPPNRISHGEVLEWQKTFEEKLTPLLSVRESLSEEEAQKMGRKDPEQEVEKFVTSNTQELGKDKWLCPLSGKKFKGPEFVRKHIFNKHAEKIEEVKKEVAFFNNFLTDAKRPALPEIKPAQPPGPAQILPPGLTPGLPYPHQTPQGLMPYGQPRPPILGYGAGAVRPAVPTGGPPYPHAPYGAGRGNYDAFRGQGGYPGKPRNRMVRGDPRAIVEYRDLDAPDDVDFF
UniProt Q5W111: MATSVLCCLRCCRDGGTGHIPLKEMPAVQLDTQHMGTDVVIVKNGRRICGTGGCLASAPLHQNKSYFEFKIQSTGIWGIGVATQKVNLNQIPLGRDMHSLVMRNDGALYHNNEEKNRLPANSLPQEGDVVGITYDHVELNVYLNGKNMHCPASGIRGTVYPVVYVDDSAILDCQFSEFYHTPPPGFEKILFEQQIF
UniProt Q15005: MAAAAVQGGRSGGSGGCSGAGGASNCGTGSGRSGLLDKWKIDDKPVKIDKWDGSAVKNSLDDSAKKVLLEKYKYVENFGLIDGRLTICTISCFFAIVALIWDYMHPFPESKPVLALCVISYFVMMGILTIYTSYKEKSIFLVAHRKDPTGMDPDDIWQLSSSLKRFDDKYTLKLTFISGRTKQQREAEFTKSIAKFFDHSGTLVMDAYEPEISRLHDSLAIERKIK
UniProt Q9H254, whole entry, looked up: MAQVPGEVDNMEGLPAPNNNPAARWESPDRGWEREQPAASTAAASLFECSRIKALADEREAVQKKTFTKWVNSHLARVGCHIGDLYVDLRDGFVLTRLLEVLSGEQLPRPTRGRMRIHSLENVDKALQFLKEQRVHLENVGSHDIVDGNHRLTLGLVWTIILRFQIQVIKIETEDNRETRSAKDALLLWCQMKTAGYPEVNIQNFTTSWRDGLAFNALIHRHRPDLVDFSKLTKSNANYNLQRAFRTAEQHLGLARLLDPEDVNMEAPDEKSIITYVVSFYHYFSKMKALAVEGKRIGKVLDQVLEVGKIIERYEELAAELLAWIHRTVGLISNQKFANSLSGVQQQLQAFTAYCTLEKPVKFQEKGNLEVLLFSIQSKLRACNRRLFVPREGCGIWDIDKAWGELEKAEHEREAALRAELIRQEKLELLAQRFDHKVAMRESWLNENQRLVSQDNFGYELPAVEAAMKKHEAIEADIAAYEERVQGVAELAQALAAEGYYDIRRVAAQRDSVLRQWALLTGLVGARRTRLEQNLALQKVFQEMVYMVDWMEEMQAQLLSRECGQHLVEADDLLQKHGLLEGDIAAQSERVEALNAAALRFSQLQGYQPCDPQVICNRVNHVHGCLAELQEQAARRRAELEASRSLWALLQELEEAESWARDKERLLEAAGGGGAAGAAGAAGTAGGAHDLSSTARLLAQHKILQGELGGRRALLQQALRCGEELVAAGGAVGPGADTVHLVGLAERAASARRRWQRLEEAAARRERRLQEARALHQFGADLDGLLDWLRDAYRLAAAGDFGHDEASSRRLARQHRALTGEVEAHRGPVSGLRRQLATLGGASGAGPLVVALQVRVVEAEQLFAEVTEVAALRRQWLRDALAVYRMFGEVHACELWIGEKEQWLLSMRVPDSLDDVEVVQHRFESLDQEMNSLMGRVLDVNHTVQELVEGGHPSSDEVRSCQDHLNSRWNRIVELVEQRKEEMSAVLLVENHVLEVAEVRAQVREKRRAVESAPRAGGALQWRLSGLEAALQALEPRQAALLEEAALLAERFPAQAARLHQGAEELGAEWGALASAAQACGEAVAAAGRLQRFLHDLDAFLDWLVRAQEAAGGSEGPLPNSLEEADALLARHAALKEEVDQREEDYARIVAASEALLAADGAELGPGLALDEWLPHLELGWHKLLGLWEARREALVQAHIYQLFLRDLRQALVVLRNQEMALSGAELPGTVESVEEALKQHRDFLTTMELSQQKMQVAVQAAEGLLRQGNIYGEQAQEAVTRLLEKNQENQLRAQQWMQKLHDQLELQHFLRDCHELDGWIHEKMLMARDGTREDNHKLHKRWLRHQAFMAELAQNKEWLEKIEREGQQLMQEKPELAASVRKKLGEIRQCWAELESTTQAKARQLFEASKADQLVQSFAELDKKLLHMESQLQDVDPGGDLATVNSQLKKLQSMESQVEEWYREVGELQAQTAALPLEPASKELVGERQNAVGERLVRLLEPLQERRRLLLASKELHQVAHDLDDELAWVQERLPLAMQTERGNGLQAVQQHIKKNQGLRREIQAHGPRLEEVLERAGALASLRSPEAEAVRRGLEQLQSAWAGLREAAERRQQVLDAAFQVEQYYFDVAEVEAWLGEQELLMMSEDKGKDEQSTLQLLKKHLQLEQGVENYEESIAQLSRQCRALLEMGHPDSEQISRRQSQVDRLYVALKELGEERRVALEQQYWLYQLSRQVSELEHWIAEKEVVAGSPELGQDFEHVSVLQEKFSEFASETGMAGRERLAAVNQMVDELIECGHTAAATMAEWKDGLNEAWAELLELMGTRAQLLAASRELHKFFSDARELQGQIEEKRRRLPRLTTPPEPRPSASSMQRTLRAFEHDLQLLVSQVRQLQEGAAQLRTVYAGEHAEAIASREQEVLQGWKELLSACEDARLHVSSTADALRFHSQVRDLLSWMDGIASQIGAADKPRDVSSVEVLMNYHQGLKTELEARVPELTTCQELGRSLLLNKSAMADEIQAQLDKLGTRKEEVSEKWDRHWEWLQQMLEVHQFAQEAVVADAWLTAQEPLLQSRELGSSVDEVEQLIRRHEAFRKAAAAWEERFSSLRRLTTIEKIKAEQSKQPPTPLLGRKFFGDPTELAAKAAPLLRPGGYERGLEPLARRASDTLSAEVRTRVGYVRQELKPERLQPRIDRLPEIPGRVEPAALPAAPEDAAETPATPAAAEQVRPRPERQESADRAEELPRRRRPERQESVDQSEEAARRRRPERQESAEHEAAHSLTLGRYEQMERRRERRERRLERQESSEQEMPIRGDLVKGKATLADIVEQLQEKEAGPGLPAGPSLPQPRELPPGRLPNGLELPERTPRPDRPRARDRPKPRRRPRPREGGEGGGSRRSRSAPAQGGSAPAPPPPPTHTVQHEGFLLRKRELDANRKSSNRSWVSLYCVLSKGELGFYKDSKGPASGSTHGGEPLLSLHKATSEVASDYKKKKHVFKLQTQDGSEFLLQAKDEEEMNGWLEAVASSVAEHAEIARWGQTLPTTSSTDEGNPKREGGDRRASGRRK
UniProt Q9Y657, whole entry, looked up: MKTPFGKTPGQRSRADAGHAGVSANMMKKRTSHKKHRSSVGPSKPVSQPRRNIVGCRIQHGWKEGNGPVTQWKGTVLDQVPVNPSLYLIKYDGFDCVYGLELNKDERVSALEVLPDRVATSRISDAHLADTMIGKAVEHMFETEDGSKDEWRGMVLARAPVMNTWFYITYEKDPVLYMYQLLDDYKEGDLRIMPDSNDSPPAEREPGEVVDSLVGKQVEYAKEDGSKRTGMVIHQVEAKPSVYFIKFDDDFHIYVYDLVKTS
UniProt O75494: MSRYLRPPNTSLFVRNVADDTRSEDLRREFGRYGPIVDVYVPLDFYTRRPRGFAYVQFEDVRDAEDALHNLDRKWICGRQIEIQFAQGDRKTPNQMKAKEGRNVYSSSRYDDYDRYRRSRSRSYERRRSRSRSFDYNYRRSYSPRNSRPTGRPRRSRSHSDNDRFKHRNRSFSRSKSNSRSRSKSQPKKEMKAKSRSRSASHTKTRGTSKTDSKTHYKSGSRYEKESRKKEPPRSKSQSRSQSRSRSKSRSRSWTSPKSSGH
UniProt Q9Y5M8: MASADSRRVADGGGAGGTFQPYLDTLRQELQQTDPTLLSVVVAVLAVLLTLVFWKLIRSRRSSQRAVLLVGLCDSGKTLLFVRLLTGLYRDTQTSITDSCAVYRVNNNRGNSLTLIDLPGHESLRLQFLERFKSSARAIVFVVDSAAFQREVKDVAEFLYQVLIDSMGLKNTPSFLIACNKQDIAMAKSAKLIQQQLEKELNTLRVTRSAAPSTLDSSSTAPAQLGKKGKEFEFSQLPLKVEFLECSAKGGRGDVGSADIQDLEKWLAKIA

[2] = compound: CC1=C(C=C(C=C1)NC(=O)C2=CC(=CC=C2)N(C)C)NC(=O)C3=CC=C(C=C3)O
How it was run: as §1

[3] = compound: CC1=CC=C(C=C1)SC2=C3C=C(SC3=CN=C2)C(=O)N
How it was run: as §1

[4] = compound: CC1=NC(=CC=C1)C2=C(N=C(N2)C(C)(C)C)C3=CC4=NC=CN=C4C=C3
How it was run: as §1

Nexturastat A = compound: CCCCN(Cc1ccc(C(=O)NO)cc1)C(=O)Nc1ccccc1 [Nexturastat A]
How it was run: as §1

vemurafenib = compound: CCCS(=O)(=O)Nc1ccc(F)c(C(=O)c2c[nH]c3ncc(-c4ccc(Cl)cc4)cc23)c1F [vemurafenib]
How it was run: as §1

[5] = compound: CCCS(=O)(=O)Nc1ccc(F)c(C(=O)c2c[nH]c3ncc(Cl)cc23)c1F
How it was run: as §1

[6] = compound: CCCc1cc(C)[nH]c(=O)c1CNC(=O)c1cc(-c2ccnc(N3CCN(C)CC3)c2)cc2c1cnn2C(C)C
How it was run: as §1

givinostat = compound: CCN(CC)Cc1ccc2cc(COC(=O)Nc3ccc(C(=O)NO)cc3)ccc2c1 [givinostat]
How it was run: as §1

barasertib = compound: CCN(CCCOc1ccc2c(Nc3cc(CC(=O)Nc4cccc(F)c4)[nH]n3)ncnc2c1)CCOP(=O)(O)O [barasertib]
How it was run: as §1

Measured: log2 fold change

STK24 (UniProt Q9Y6E0)
inactive: [1] -0.076 | [2] 0.005 | [3] -0.004 | [4] 0.065 | Nexturastat A -0.035 | vemurafenib -0.006 | [5] 0.006 | [6] -0.012 | givinostat -0.001 | barasertib 0.004

SRSF5 (UniProt Q13243)
inactive: [1] 0 | [2] -0.026 | [3] -0.056 | [4] -0.095 | Nexturastat A 0.204 | vemurafenib -0.033 | [5] -0.046 | [6] 0.109 | givinostat 0.112 | barasertib -0.078

SRRM2 (UniProt Q9UQ35)
inactive: [1] -0.022 | [2] 0.01 | [3] -0.067 | [4] 0.147 | Nexturastat A 0.156 | vemurafenib 0.068 | [5] 0.007 | [6] 0.01 | givinostat 0.082 | barasertib -0.041

SSR3 isoform 2 (UniProt Q9UNL2)
inactive: [1] -0.032 | [2] 0.123 | [3] -0.014 | [4] 0.022 | Nexturastat A -0.103 | vemurafenib 0.11 | [5] -0.011 | [6] -0.075 | givinostat -0.042 | barasertib 0.017

STAT3 (UniProt P40763)
inactive: [1] 0.012 | [2] 0.001 | [3] -0.009 | [4] -0.008 | Nexturastat A 0.005 | vemurafenib 0.101 | [5] 0.102 | [6] 0.017 | givinostat 0.089 | barasertib 0.064

STAM2 (UniProt O75886)
inactive: [1] -0.08 | [2] -0.032 | [3] 0.034 | [4] 0.069 | Nexturastat A -0.012 | vemurafenib 0.009 | [5] 0.074 | [6] -0.038 | givinostat 0.021 | barasertib 0.028

SSB (UniProt P05455)
inactive: [1] -0.02 | [2] 0.024 | [3] -0.026 | [4] 0.024 | Nexturastat A 0.019 | vemurafenib -0.003 | [5] 0.003 | [6] 0.036 | givinostat -0.175 | barasertib 0.074

STAG2 (UniProt Q8N3U4)
inactive: [1] -0.009 | [2] 0.007 | [3] 0 | [4] 0.008 | Nexturastat A 0.017 | vemurafenib 0.013 | [5] 0.023 | [6] 0.001 | givinostat 0.063 | barasertib 0.002

ST13 (UniProt P50502)
inactive: [1] 0.029 | [2] 0.003 | [3] 0.023 | [4] 0.033 | Nexturastat A -0.101 | vemurafenib 0.008 | [5] 0.021 | [6] -0.007 | givinostat -0.008 | barasertib 0.032

SPRY4 (UniProt Q9C004)
inactive: [1] 0.046 | [2] 0.103 | [3] 0.001 | [4] -0.017 | Nexturastat A -0.026 | vemurafenib -0.01 | [5] 0.005 | [6] -0.063 | givinostat -0.077 | barasertib -0.013

SRRT (UniProt Q9BXP5)
inactive: [1] 0.115 | [2] -0.158 | [3] 0.099 | [4] 0.137 | Nexturastat A -0.087 | vemurafenib 0.118 | [5] 0.17 | [6] 0.089 | givinostat 0.204 | barasertib 0.105

SPRYD7 (UniProt Q5W111)
inactive: [1] -0.051 | [2] -0.017 | [3] 0.023 | [4] -0.016 | Nexturastat A 0.026 | vemurafenib -0.025 | [5] 0.019 | [6] 0.074 | givinostat 0.02 | barasertib 0.002

2 entries drawn at random from those above:
SPRY4 (UniProt Q9C004)
inactive: [1] 0.046 | [2] 0.103 | [3] 0.001 | [4] -0.017 | Nexturastat A -0.026 | vemurafenib -0.01 | [5] 0.005 | [6] -0.063 | givinostat -0.077 | barasertib -0.013

SPRYD7 (UniProt Q5W111)
inactive: [1] -0.051 | [2] -0.017 | [3] 0.023 | [4] -0.016 | Nexturastat A 0.026 | vemurafenib -0.025 | [5] 0.019 | [6] 0.074 | givinostat 0.02 | barasertib 0.002

The list goes on.

SRPK2 isoform 2 (UniProt P78362)
inactive: [1] 0.015 | [2] 0 | [3] -0.036 | [4] -0.085 | Nexturastat A 0.149 | vemurafenib -0.092 | [5] -0.103 | [6] 0.09 | givinostat -0.057 | barasertib -0.05

SRC isoform 2 (UniProt P12931)
inactive: [1] -0.006 | [2] 0.022 | [3] -0.016 | [4] -0.06 | Nexturastat A -0.075 | vemurafenib 0.068 | [5] 0.069 | [6] -0.06 | givinostat -0.091 | barasertib -0.01

SPR (UniProt P35270)
inactive: [1] 0.103 | [2] -0.003 | [3] 0.063 | [4] -0.043 | Nexturastat A -0.069 | vemurafenib -0.019 | [5] 0.019 | [6] 0.009 | givinostat -0.004 | barasertib -0.076

SPRYD4 (UniProt Q8WW59)
inactive: [1] 0.041 | [2] 0.014 | [3] 0.017 | [4] -0.017 | Nexturastat A 0.001 | vemurafenib 0.042 | [5] -0.015 | [6] -0.059 | givinostat -0.022 | barasertib 0.013

SPCS2 (UniProt Q15005)
inactive: [1] 0.011 | [2] 0.004 | [3] 0 | [4] 0.3 | Nexturastat A -0.052 | vemurafenib 0.075 | [5] 0.058 | [6] -0.011 | givinostat -0.009 | barasertib 0.025

SPTBN4 (UniProt Q9H254)
inactive: [1] -0.013 | [2] -0.037 | [3] 0.144 | [4] 0.025 | Nexturastat A 0.039 | vemurafenib -0.027 | [5] -0.036 | [6] -0.12 | givinostat 0.112 | barasertib -0.013

SPIN1 (UniProt Q9Y657)
inactive: [1] 0.103 | [2] -0.035 | [3] -0.029 | [4] 0.017 | Nexturastat A -0.145 | vemurafenib -0.11 | [5] -0.034 | [6] -0.077 | givinostat -0.184 | barasertib -0.016

SPNS1 (UniProt Q9H2V7)
inactive: [1] 0.039 | [2] 0.009 | [3] -0.056 | [4] -0.004 | Nexturastat A -0.083 | vemurafenib 0.01 | [5] -0.12 | [6] -0.063 | givinostat -0.008 | barasertib -0.017

SPECC1 (UniProt Q5M775)
inactive: [1] -0.028 | [2] -0.015 | [3] 0.094 | [4] -0.063 | Nexturastat A -0.08 | vemurafenib -0.094 | [5] -0.06 | [6] -0.102 | givinostat 0.035 | barasertib 0.062

STIP1 isoform 2 (UniProt P31948)
inactive: [1] 0.044 | [2] -0.011 | [3] -0.023 | [4] 0.058 | Nexturastat A -0.112 | vemurafenib 0.022 | [5] -0.01 | [6] -0.001 | givinostat -0.029 | barasertib -0.004

SRSF10 (UniProt O75494)
inactive: [1] -0.046 | [2] 0.029 | [3] -0.076 | [4] -0.134 | Nexturastat A 0.227 | vemurafenib -0.027 | [5] -0.027 | [6] 0.083 | givinostat 0.017 | barasertib -0.045

SRSF1 (UniProt Q07955)
inactive: [1] -0.003 | [2] 0.042 | [3] -0.116 | [4] 0.002 | Nexturastat A 0.182 | vemurafenib -0.032 | [5] -0.061 | [6] 0.077 | givinostat -0.002 | barasertib -0.118

SPECC1L (UniProt Q69YQ0)
inactive: [1] -0.02 | [2] 0.077 | [3] 0.037 | [4] 0.008 | Nexturastat A 0.023 | vemurafenib 0.064 | [5] -0.053 | [6] -0.065 | givinostat -0.004 | barasertib 0.003

STAG1 (UniProt Q8WVM7)
inactive: [1] -0.001 | [2] -0.004 | [3] -0.008 | [4] 0.029 | Nexturastat A 0.048 | vemurafenib 0.011 | [5] 0.07 | [6] 0.016 | givinostat 0.048 | barasertib 0.006

STEAP3 isoform 2 (UniProt Q658P3)
inactive: [1] -0.009 | [2] 0.015 | [3] 0.008 | [4] -0.003 | Nexturastat A -0.05 | vemurafenib -0.027 | [5] 0.007 | [6] -0.025 | givinostat 0.005 | barasertib -0.004

SRPRB (UniProt Q9Y5M8)
inactive: [1] 0.096 | [2] -0.051 | [3] 0.025 | [4] 0.092 | Nexturastat A -0.035 | vemurafenib 0.061 | [5] 0.073 | [6] 0.035 | givinostat -0.127 | barasertib 0.027

SRSF9 (UniProt Q13242)
inactive: [1] -0.044 | [2] 0.015 | [3] -0.083 | [4] -0.082 | Nexturastat A 0.37 | vemurafenib -0.116 | [5] 0.076 | [6] 0.075 | givinostat 0.151 | barasertib -0.082

SPCS3 (UniProt P61009)
inactive: [1] -0.081 | [2] 0.016 | [3] -0.057 | [4] -0.002 | Nexturastat A -0.045 | vemurafenib 0.018 | [5] -0.01 | [6] 0.055 | givinostat -0.057 | barasertib 0.051

— the supplement of paper PMC10849652
